According to publication PMC8114533:
Results are given in words; binding and its absence hold for the method and conditions named. In cells and extracts the contact can be indirect. These calls come from enrichment with a bait or labelling near it, and not all partners need be listed. Tags and fused reporters may be left off the sequences shown.

Molecular target: T1, Flag-tagged MYLK4 (myosin light chain kinase family member 4) in 143B cells (human) (UniProt Q86YV6)
T1 sequence: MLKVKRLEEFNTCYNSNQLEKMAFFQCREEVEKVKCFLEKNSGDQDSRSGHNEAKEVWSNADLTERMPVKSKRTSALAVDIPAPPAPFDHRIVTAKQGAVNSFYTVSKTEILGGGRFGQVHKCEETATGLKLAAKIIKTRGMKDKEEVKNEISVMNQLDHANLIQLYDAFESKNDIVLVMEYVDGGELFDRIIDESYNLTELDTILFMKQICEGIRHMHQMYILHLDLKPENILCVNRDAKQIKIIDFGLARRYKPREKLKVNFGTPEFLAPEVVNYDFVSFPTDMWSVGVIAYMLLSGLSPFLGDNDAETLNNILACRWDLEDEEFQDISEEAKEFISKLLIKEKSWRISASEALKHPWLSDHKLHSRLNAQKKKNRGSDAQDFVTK
Experiment: affinity purification with mass spectrometry; IP beads from a 10 cm dish of Flag-MYLK4 overexpression 143B cells; silver staining, indicated bands sequenced by MS (Orbitrap Elite)

binding: binds
Substance: Epidermal growth factor receptor (EGFR), endogenous in 143B cells (from UniProt P00533 25-1210)
